Test results taken from publication PMC8975741.
Results are given in words; binding and its absence hold for the method and conditions named. In cells and extracts the contact can be indirect. Some binding calls cover weakened binding; strength is not graded here. For part of these data: Sequences can lack the tags named with a protein.

Chains of the proteins cited; added tags and fusions are not shown.
UniProt Q14160: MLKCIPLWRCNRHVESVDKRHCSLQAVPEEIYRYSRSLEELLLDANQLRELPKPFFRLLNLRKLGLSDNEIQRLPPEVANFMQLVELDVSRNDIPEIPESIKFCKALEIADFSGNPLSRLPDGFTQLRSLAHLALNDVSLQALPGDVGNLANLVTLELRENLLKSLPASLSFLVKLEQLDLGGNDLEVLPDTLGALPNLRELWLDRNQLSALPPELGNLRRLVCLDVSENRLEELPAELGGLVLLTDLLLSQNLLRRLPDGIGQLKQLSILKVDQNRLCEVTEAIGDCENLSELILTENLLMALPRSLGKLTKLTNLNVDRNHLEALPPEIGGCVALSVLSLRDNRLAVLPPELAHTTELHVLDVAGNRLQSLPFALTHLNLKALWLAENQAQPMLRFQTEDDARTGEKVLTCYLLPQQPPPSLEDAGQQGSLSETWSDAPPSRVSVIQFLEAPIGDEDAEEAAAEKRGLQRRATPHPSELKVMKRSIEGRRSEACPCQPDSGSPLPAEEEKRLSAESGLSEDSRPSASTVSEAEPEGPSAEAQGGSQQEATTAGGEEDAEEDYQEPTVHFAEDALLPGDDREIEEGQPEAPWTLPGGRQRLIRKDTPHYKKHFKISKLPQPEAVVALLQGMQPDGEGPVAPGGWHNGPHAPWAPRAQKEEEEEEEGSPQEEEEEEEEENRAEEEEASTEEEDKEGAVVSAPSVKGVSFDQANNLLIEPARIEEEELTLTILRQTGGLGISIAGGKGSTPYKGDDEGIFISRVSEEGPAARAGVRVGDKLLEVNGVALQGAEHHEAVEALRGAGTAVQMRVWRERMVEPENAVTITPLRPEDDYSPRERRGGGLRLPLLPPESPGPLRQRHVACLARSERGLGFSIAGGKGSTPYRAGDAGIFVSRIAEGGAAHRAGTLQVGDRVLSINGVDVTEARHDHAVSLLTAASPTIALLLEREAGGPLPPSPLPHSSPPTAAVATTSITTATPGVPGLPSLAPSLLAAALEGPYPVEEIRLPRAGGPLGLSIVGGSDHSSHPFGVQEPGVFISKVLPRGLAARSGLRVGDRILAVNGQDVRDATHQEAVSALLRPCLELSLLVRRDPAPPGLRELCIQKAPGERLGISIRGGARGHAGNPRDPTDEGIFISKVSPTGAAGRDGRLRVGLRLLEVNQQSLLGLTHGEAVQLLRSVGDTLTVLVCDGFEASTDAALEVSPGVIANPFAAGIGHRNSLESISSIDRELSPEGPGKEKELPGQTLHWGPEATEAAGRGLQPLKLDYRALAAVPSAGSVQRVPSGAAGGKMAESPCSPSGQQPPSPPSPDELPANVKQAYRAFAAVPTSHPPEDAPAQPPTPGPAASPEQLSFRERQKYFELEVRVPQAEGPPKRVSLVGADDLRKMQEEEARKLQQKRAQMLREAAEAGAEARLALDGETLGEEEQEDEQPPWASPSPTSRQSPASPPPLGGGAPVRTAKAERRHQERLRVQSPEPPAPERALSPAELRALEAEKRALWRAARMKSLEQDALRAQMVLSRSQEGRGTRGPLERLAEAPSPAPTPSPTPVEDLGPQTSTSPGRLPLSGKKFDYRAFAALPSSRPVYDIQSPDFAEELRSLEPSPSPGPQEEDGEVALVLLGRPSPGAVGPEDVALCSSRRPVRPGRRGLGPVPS

Legend:
[1] = target: T1, Flag tagged-TSPAN6 (human) (UniProt O43657); assay: co-IP; PANC1 or MIA-PaCa2 cells overexpressing FLAG-TSPAN6 lysed in 1% Brij 98; IP with anti-FLAG or IgG control, immunoblot with anti-EGFR, anti-SCRIB, anti-DLG1 or anti-FLAG; conducted once
T1 sequence: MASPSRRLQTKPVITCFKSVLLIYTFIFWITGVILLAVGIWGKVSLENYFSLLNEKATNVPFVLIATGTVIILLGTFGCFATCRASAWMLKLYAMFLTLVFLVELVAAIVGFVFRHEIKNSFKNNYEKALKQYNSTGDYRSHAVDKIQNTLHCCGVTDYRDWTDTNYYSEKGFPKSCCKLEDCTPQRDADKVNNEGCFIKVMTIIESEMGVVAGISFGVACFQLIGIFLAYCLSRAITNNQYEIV

[2] = target: EGFR (endogenous) (human (endogenous in PANC1 and MIA PaCa2)) (UniProt P00533); assay: co-IP; PANC1 or MIA-PaCa2 cells lysed in 1% Brij 98 (mild stringency); IP with anti-EGFR or IgG control, immunoblot with anti-TSPAN6 or anti-EGFR

## EGFR (endogenous) (from UniProt P00533 25-1210) (receptor)
[1]
  binding: binds

## SCRIB (endogenous) (from UniProt Q14160 1-1655)
[1]
  binding: no binding

B1: TSPAN6 (endogenous) (protein, UniProt O43657 1-245)
chain: MASPSRRLQTKPVITCFKSVLLIYTFIFWITGVILLAVGIWGKVSLENYFSLLNEKATNVPFVLIATGTVIILLGTFGCFATCRASAWMLKLYAMFLTLVFLVELVAAIVGFVFRHEIKNSFKNNYEKALKQYNSTGDYRSHAVDKIQNTLHCCGVTDYRDWTDTNYYSEKGFPKSCCKLEDCTPQRDADKVNNEGCFIKVMTIIESEMGVVAGISFGVACFQLIGIFLAYCLSRAITNNQYEIV
[2]
  binding: binds
